Assay results from paper doi:10.1101/2024.11.22.622898.
These are yes or no findings as the source states them, for the method shown. Binding seen in cells or lysates may run through a third protein. Some results given as binding are weak or reduced against the parent protein; the word gives no strength. Where a sequence is shown, tags or fusion partners need not be part of it.

Biological target: T1, GFP-TBC1D1 (human) (UniProt Q86TI0)
T1 sequence: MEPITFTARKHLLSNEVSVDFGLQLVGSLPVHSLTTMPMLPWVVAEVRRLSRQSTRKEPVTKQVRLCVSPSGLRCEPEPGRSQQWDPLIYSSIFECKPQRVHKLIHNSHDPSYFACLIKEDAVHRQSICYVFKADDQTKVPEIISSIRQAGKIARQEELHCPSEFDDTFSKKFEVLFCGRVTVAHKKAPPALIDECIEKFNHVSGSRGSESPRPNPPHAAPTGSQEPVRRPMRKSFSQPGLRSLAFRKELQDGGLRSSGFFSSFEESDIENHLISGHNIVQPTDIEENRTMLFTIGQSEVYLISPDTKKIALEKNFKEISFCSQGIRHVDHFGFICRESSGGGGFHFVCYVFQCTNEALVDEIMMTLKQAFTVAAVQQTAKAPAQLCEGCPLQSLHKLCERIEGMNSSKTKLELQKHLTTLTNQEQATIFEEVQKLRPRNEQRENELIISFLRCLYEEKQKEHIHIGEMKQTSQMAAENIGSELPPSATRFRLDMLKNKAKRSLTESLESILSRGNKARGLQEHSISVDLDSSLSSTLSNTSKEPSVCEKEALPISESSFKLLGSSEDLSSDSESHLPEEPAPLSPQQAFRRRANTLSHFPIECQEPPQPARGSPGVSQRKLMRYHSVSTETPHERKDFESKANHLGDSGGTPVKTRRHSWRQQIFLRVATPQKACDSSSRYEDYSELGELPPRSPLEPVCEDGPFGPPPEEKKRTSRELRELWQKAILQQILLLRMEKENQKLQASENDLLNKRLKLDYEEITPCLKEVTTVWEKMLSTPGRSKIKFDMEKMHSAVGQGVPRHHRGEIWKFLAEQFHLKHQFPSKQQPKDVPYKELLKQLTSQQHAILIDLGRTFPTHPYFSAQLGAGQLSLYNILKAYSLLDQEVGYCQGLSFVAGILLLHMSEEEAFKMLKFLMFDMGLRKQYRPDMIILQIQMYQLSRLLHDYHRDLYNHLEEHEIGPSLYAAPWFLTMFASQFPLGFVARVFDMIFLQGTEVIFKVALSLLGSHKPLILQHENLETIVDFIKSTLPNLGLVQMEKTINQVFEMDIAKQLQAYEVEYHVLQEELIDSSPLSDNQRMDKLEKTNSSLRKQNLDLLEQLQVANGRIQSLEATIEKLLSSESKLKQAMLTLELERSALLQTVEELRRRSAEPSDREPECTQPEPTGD
Test: co-IP

binding: binds
B1: mCherry-TBC1D4 (protein, UniProt O60343 1-1298)
chain: MEPPSCIQDEPFPHPLEPEPGVSAQPGPGKPSDKRFRLWYVGGSCLDHRTTLPMLPWLMAEIRRRSQKPEAGGCGAPAAREVILVLSAPFLRCVPAPGAGASGGTSPSATQPNPAVFIFEHKAQHISRFIHNSHDLTYFAYLIKAQPDDPESQMACHVFRATDPSQVPDVISSIRQLSKAAMKEDAKPSKDNEDAFYNSQKFEVLYCGKVTVTHKKAPSSLIDDCMEKFSLHEQQRLKIQGEQRGPDPGEDLADLEVVVPGSPGDCLPEEADGTDTHLGLPAGASQPALTSSRVCFPERILEDSGFDEQQEFRSRCSSVTGVQRRVHEGSQKSQPRRRHASAPSHVQPSDSEKNRTMLFQVGRFEINLISPDTKSVVLEKNFKDISSCSQGIKHVDHFGFICRESPEPGLSQYICYVFQCASESLVDEVMLTLKQAFSTAAALQSAKTQIKLCEACPMHSLHKLCERIEGLYPPRAKLVIQRHLSSLTDNEQADIFERVQKMKPVSDQEENELVILHLRQLCEAKQKTHVHIGEGPSTISNSTIPENATSSGRFKLDILKNKAKRSLTSSLENIFSRGANRMRGRLGSVDSFERSNSLASEKDYSPGDSPPGTPPASPPSSAWQTFPEEDSDSPQFRRRAHTFSHPPSSTKRKLNLQDGRAQGVRSPLLRQSSSEQCSNLSSVRRMYKESNSSSSLPSLHTSFSAPSFTAPSFLKSFYQNSGRLSPQYENEIRQDTASESSDGEGRKRTSSTCSNESLSVGGTSVTPRRISWRQRIFLRVASPMNKSPSAMQQQDGLDRNELLPLSPLSPTMEEEPLVVFLSGEDDPEKIEERKKSKELRSLWRKAIHQQILLLRMEKENQKLEASRDELQSRKVKLDYEEVGACQKEVLITWDKKLLNCRAKIRCDMEDIHTLLKEGVPKSRRGEIWQFLALQYRLRHRLPNKQQPPDISYKELLKQLTAQQHAILVDLGRTFPTHPYFSVQLGPGQLSLFNLLKAYSLLDKEVGYCQGISFVAGVLLLHMSEEQAFEMLKFLMYDLGFRKQYRPDMMSLQIQMYQLSRLLHDYHRDLYNHLEENEISPSLYAAPWFLTLFASQFSLGFVARVFDIIFLQGTEVIFKVALSLLSSQETLIMECESFENIVEFLKNTLPDMNTSEMEKIITQVFEMDISKQLHAYEVEYHVLQDELQESSYSCEDSETLEKLERANSQLKRQNMDLLEKLQVAHTKIQALESNLENLLTRETKMKSLIRTLEQEKMAYQKTVEQLRKLLPADALVNCDLLLRDLNCNPNNKAKIGNKP
